Measured values taken from PubChem BioAssay AID540275 (National Center for Advancing Translational Sciences (NCATS), 2011).
Hit rate of the full screen: of about 320,000 compounds, about 620 (0.19%) were called active. The inconclusive results got no clear call from the source; some entries with a clear call stand among them for comparison. No stated cut-off is given here; in the data, active means activation above about 80%; inconclusive means between about 30% and that limit; inactive means weaker than that.

The chains behind the UniProt entries cited, without tags or fusion partners.
UniProt Q8NER1, whole entry, looked up: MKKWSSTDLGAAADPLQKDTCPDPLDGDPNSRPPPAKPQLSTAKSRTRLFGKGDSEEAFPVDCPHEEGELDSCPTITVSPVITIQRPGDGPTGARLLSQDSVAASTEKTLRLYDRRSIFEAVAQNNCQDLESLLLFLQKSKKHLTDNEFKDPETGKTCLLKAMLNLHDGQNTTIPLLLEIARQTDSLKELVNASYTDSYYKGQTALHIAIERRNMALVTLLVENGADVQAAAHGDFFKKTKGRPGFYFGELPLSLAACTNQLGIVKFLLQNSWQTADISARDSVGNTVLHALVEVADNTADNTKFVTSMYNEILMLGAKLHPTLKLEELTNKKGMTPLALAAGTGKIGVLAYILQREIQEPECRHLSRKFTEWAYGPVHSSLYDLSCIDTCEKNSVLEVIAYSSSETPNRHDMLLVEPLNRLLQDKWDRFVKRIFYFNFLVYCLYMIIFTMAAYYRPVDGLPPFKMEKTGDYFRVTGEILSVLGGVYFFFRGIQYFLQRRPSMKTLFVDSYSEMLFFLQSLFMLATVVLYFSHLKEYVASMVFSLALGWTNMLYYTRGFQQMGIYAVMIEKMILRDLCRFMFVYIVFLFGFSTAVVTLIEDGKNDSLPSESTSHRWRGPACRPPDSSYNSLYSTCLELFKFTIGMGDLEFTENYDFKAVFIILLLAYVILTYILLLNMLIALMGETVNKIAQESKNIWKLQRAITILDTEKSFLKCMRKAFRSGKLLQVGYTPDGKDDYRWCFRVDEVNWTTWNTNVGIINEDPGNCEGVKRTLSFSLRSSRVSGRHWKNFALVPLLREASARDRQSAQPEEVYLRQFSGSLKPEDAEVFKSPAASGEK

Biological target: Transient receptor potential cation channel subfamily V member 1 (Homo sapiens) (UniProt Q8NER1)
Experiment: HTS Assay for Compounds that Act as Agonists of the Vanilloid Receptor 1; further: 0% is about no effect
Details: TRPV1-expressing cells, Fluo-8 calcium influx, agonist mode; at 8.33 µM, stronger effect = higher value
Method in brief: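 Fluo-8 calcium influx in TRPV1-expressing cells, kinetic read (ex 480/em 520 nm). Compound added and read 3 min for agonist activity, followed by capsaicin at EC20 final and 2 min further read for enhancement.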

Row | SMILES | activation
1 | CCCCCc1ccc(OCCCC[n+]2ccccc2)c(CCCCC)c1 | inactive: 11.5%
2 | Cc1cc(NC(=O)CSc2nc(-c3cccnc3)ccc2C#N)no1 | inactive: 0.0603%
3 | C=CCNC(=O)C1CC1(c1ccc(C)cc1)c1ccc(C)cc1 (stereo unspecified) | inconclusive: 74.8%
4 | COc1ccc(OC)c(/C=N/NC(=O)CCc2c(C)n[nH]c2C)c1 | inconclusive: 65.1%
5 | Cc1ccc(NC(=O)C2=NNC(=O)CC2)cc1F | inconclusive: 60%
6 | O=C(/C=C/c1cccc(O)c1)c1cccnc1 | inactive: -2.27%
7 | COc1ccc(C(=O)NCCc2ccccc2)cc1[N+](=O)[O-] | inconclusive: 48.5%
8 | O=C(Nc1cccnc1)c1ccc(CSc2ccccc2)cc1 | inconclusive: 53.9%
9 | O=C(CCCOc1ccc(Cl)cc1Cl)Nc1ccncc1 | active: 80.3%
10 | COc1ccc(Nc2nc(OC)nc(N3CCOCC3)n2)cc1 | inconclusive: 64.1%
11 | CN(C)/C=C1\C=C2C(=O)c3ccccc3N2C1=O | active: 92.5%
12 | Cn1cc(Br)c(-c2cccc(NC(=O)CC(C)(C)CC(=O)O)c2)n1 | inactive: -0.54%
13 | COc1cc2cc(C(=O)O)n(C)c2c(OC)c1OC | inactive: -0.531%
14 | O=C(/C=C/c1ccc(Cl)c(Cl)c1)NCCCn1ccnc1 | inconclusive: 30.6%
15 | CCc1sc(NC(=O)C(C)C)nc1-c1ccccc1 | inconclusive: 48.4%
16 | CN(C)S(=O)(=O)N1CCC(Oc2cccc(C(=O)NCCC3=CCCCC3)c2)CC1 | inactive: 30%
17 | Cc1ccc(NC(=O)c2ccc(NS(=O)(=O)/C=C/c3ccccc3)cc2)nc1 | inconclusive: 31.2%
18 | Cc1onc(-c2ccccc2Cl)c1C(=O)Nc1nnc(-c2ccc(F)cc2)s1 | inactive: 3.46%
19 | CCc1ccc(NC(=O)c2ccc(S(=O)(=O)NCc3cccnc3)cc2)cc1 | active: 87.2%
20 | Cc1cccc(OC(C)C(=O)Nc2ccccc2C(=O)N2CCCCC2)c1 (stereo unspecified) | inconclusive: 32.8%
21 | Cc1cccc(C(=O)Nc2ccc(N3CCN(c4ccc(C(F)(F)F)cn4)CC3)nc2)c1 | inactive: 3.46%
22 | COC(=O)c1sccc1NC(=O)Nc1ccc(OC)cc1 | inactive: 29.3%
23 | COc1ccc(CNCC(O)(c2ccccc2)c2ccc(Cl)cc2)cc1 (stereo unspecified) | inactive: 9.15%

Row | SMILES | activation
24 | CCC(=O)NCCCNc1nc2c(C)cccc2cc1C#N | inconclusive: 56.3%
25 | COc1cccc(/C=C(/C(=O)OCC(=O)NCC2CCCO2)c2ccccc2)c1 (stereo unspecified) | inconclusive: 54.3%
26 | O=C(c1ccc(N2CCCCC2)c([N+](=O)[O-])c1)N1CCN(S(=O)(=O)c2ccccc2)CC1 | inactive: 9.63%
27 | CN(CC(=O)Nc1ccccc1C(=O)NC1CC1)Cc1ccc(Cl)s1 | inconclusive: 30.6%
28 | O=c1cc(N2CCCCC2)c(-c2ccccc2)nn1Cc1ccccc1 | active: 81%
29 | CCN(CC)c1ccc(NC(=O)c2cccc(OC)c2)c(C)c1 | inconclusive: 39.2%
30 | CCN1C(=O)CSC1=NC12CC3CC(CC(C3)C1)C2 | inconclusive: 31%
31 | CCOC(=O)c1c(NC(=O)CNC2CCCCC2)sc(C)c1C | inactive: -1.89%
32 | N#Cc1c(N)nc2c3c(sc(=N)c2c1N)NC(=O)CC3c1ccccc1 (stereo unspecified) | inactive: -2.62%
33 | CSCCCNC(=S)N1CCN(c2ccc(C(C)=O)cc2)CC1 | inconclusive: 33.9%
34 | O=C(N1CCOCC1)N1CCN(c2ccc(F)cc2)CC1 | inconclusive: 56.2%
35 | O=C(c1cc(COc2cccc(C(F)(F)F)c2)on1)N1CCC(c2ccncc2)CC1 | inactive: -1.2%
36 | C=CCNC(=S)N1CCC(C(=O)c2ccc(F)cc2)CC1 | inconclusive: 36.6%
37 | CCCOc1cccc(C(=O)Nc2ccc(Br)cc2F)c1 | inconclusive: 43%
38 | CCCCCCc1ccc(N2C[C@H](CCCCC)[C@@H](CC(=O)NCc3ccc(OC)cc3)C2=O)cc1 | inconclusive: 33.5%
39 | COc1ccccc1-[n+]1c(C)cc(/C=C2\Sc3ccccc3N2C)cc1C | inconclusive: 70.3%
40 | Cc1nc(Nc2ccccc2)sc1C(=O)c1ccccc1 | inconclusive: 45.6%
41 | c1ccc(CNn2c(N3CCOCC3)nc3ccccc32)cc1 | inconclusive: 38.1%
42 | CCCCS(=O)(=O)Nc1ccc2cn[nH]c2c1 | inconclusive: 30.9%
43 | COc1ccc(/C=C2\NC(=S)N(CC3CCCO3)C2=O)c(OC)c1C (stereo unspecified) | inconclusive: 31.2%
44 | Cc1cccc(-c2n[nH]c(=S)n2/N=C/C=C/c2ccco2)c1 | inconclusive: 30.3%
45 | O=C(N/N=C/c1cccc(O)c1)c1ccc(NC(=O)C2CCCCC2)cc1 | inconclusive: 71.1%
46 | CCOC(=O)CN1C(=O)C(Sc2n[nH]c(-c3ccc(C)cc3)n2)CCc2ccccc21 (stereo unspecified) | inconclusive: 62.6%

Row | SMILES | activation
47 | CC(=O)c1c(C)[nH]c(C(=O)Nc2nc(-c3ccc(Cl)cc3)cs2)c1C | inactive: -6.98%
48 | Cc1nn(C)c(C)c1NC(=O)CCCSc1nc(-c2ccco2)cc(C(F)(F)F)n1 | inconclusive: 59.8%
49 | COc1cc2c(cc1OC)CN(CC(=O)NC(=O)NC(C)(C)C)CC2 | inconclusive: 30%
50 | COc1ccc(NC(=O)c2ccc(C)cc2)c(OC)c1 | inactive: 8.6%
51 | S=C(NCCCc1ccccc1)NCc1ccccc1 | inconclusive: 73.2%
52 | CC(C)(C)c1ccc(NC(=O)COC(=O)C2(C)CC2(Cl)Cl)cc1 (stereo unspecified) | inconclusive: 53.6%
53 | CCN(c1ccccc1)S(=O)(=O)c1ccc(C(=O)Nc2ncccc2O)cc1 | inconclusive: 52.1%
54 | COc1ccc(CN(Cc2ccccn2)S(=O)(=O)c2ccc(-n3cnnn3)cc2)cc1 | inconclusive: 67.2%
55 | CCN(CC)c1ncnc2c1sc1nc(C)cc(C)c12 | inconclusive: 31.1%
56 | Fc1cccc(-n2ncc(-c3nnnn3-c3ccccc3)c2C(F)(F)F)c1 | inconclusive: 38.2%
57 | CCc1nnc(NC(=O)C2CCN(c3ncnc4sc(C)c(C)c34)CC2)s1 | inactive: -2.92%
58 | CC(=O)Nc1ccc(NC(=O)CCCSc2nc3ccccc3[nH]2)cc1 | inactive: 0.493%
59 | CC1CCN(c2c(NCc3ccc(C(=O)N4CCc5ccccc54)cc3)c(=O)c2=O)CC1 | inconclusive: 38.4%
60 | Cc1ccc2c(COC(=O)c3c(C)noc3C)cc(=O)oc2c1 | inconclusive: 32.1%
61 | Cc1ccc(Cn2nnc3c(=O)n(CC(=O)c4ccccc4)cnc32)cc1 | inconclusive: 33.9%
62 | CC(=O)c1ccc(NC(=O)c2noc(C(C)C)c2[N+](=O)[O-])cc1 | inconclusive: 45.9%
63 | Cc1nc2c(S(=O)(=O)c3ccccc3)cnn2c(C)c1C | inactive: 1.73%
64 | CC(=O)CSc1cc(C)nc2c(-c3ccccc3)c(C)nn12 | inactive: -1.41%
65 | CCn1c(=O)n(CC)c2cc(S(=O)(=O)N3CCCCC3)c(C)cc21 | inconclusive: 44.4%
66 | CCOCCCNC(=O)c1ccc2c(c1)N=C(CC)c1cc(Br)ccc1S2 | inconclusive: 42.8%
67 | O=C(Cc1c(F)c(F)c(F)c(F)c1F)Nc1nc(-c2ccccc2)cs1 | inactive: 0.834%
68 | Cc1ccc2c(c1)[nH]c1c(N3CCN(Cc4ccccc4)CC3)ncnc12 | inactive: 3.01%
69 | O=C(c1cc2ccccc2o1)N(Cc1ccco1)Cc1cccs1 | inconclusive: 30.9%

Row | SMILES | activation
70 | Cc1ccccc1NC1=NC(=S)N(c2ccccc2)C12CCOC(C)(C)C2 (stereo unspecified) | inactive: 10.9%
71 | CN1CC(c2ccccc2)C2(SC(=S)N(Cc3ccco3)C2=O)C12C(=O)Nc1ccccc12 (stereo unspecified) | inconclusive: 44.4%
72 | CS(=O)(=O)c1cnc2c(S(=O)(=O)c3ccccc3)cnn2c1N | inactive: -1.6%
73 | COC(=O)c1[nH]c2ccccc2c1Sc1ccccc1 | inconclusive: 51.4%
74 | CC(C)c1ccc(/C=N/NC(=O)c2cccc(S(=O)(=O)N3CCOCC3)c2)cc1 | inconclusive: 56.3%
75 | Cc1ccc(N/N=C(\C#N)C(=N)N2CCCCCC2)cc1 | inconclusive: 72%
76 | CCn1c2ccccc2c2cc(C3C(C#N)=C(N)Oc4n[nH]c(COC)c43)ccc21 (stereo unspecified) | inconclusive: 38.4%
77 | c1csc(CNc2ncnc3ccc(-c4ccc5c(c4)OCO5)cc23)c1 | inconclusive: 53%
78 | Cc1cc(S(=O)(=O)Cc2noc(-c3c(C)noc3C)n2)c(C)cc1Cl | inactive: 0.67%
79 | CC(C)CN(CC(C)C)S(=O)(=O)N1CCC(C(=O)NCc2cccnc2)CC1 | inconclusive: 72.5%
80 | COc1ccc(Nc2cc(=O)oc3ccccc23)cc1 | inconclusive: 38%
81 | CCOC(=O)c1c(C)[nH]c(N=Nc2ccccc2)c1C | inconclusive: 35.1%
82 | Cc1ccc(NC(=O)c2ccc(Cl)c(NC(=O)c3cccs3)c2)cc1 | inconclusive: 32%
83 | COc1ccccc1C1c2ccc3ccccc3c2Oc2ncn(CCN(C)C)c(=N)c21 (stereo unspecified) | inactive: 8.95%
84 | CC(=O)N1CC(C)Sc2ccc(S(=O)(=O)NC3CCCCC3)cc21 (stereo unspecified) | inconclusive: 60.6%
85 | CC1Cc2nc(SCC(=O)N3CCN(c4ccccc4)CC3)n(C)c(=O)c2S1 (stereo unspecified) | inactive: 1.49%
86 | O=C(c1ccc(-c2ccccc2)cc1)N1CCN(c2ccccn2)CC1 | inconclusive: 30.5%
87 | CC(C)(C)c1ccc(C(=O)NC(=S)N2CCOCC2)cc1 | inconclusive: 64.5%
88 | COc1ccc(C(O)(CCC(C)C)C(CN2CCOCC2)c2ccc(Cl)cc2)cc1 (stereo unspecified) | inconclusive: 42.3%
89 | OC(CNCCc1ccc(C(F)(F)F)cc1)COC(c1ccccc1)c1ccccc1 (stereo unspecified) | inactive: 16.2%
90 | CCCCNC(=O)/C(C#N)=C/c1ccc(F)cc1F | inconclusive: 49.8%
91 | Clc1ccccc1-c1nnc(-c2ccc3c(c2)OCO3)o1 | inconclusive: 44.9%
